Experimental data taken from PubChem BioAssay AID248 (DTP/NCI, 2004).
The list shows only some results of the screen, not a fair sample: it is rich in T/C values a quarter to a half above the control, in often repeated tests (any T/C) and in doses without a T/C. Other doses and runs of a compound stand elsewhere. T/C is the treated group as % of the vehicle group. Some doses have a count of surviving animals in place of a T/C: the source files T/C as zero there, which appears to mark a toxic dose or a test without result, not a measured value. Some doses without a T/C left all or most animals alive at the check, yet need not have been tolerated: survival well below the control is almost never listed, so the zero probably covers shortened survival too. Counts of survivors are from the toxicity check (mostly the fifth day) where no day follows; animals may have died later. Schedules are NCI's codes, taken here to give the interval after Q, in days (D) or hours (H), and the number of doses after X. Some schedule codes hold Z or #, which are not explained here. Some doses were run more than once; their values stand side by side, smallest first.

System: L1210 leukemia ip in BDF1 mice, survival T/C
Experiment: NCI In Vivo Anticancer Drug Screen. Data for tumor model L1210 Leukemia (intraperitoneal) in B6D2F1 (BDF1) mice
Settings: T/C endpoint: mean survival time, higher T/C = longer survival
[1] = dose: 200.0 mg/kg/injection, schedule: Q01DX009 (ip), vehicle: saline with Tween-80
[2] = dose: 200.0 mg/kg/injection, schedule: Q04DX003 (ip), vehicle: Klucel (hydroxypropylcellulose) (HPC)
[3] = dose: 400.0 mg/kg/injection, schedule: Q04DX003 (ip), vehicle: Klucel (hydroxypropylcellulose) (HPC)

SMILES: COC1CCCCC1SCSC1CCCCC1OC (centres undefined)
- survivor count [1]: 6 of 6

SMILES: CC1CCC(NC(=O)NCCCl)c2ccccc21 (centres undefined)
- survivor count (dose: 100.0 mg/kg/injection, schedule: Q04DX003 (ip), vehicle: Klucel (hydroxypropylcellulose) (HPC)): 6 of 6
- survivor count [2]: 3 of 6
- survivor count [3]: 3 of 6

SMILES: N#CC(C#N)=Cc1cccc([N+](=O)[O-])c1
- survivor count (dose: 200.0 mg/kg/injection, schedule: Q01DX001 (ip), vehicle: carboxymethylcellulose (CMC)): 1 of 4
- survivor count (dose: 200.0 mg/kg/injection, schedule: Q01DX009 (ip), vehicle: Klucel (hydroxypropylcellulose) (HPC)): 1 of 6
- survivor count [2]: 2 of 6
- survivor count (dose: 400.0 mg/kg/injection, schedule: Q01DX001 (ip), vehicle: carboxymethylcellulose (CMC)): 0 of 4
- survivor count (dose: 400.0 mg/kg/injection, schedule: Q01DX009 (ip), vehicle: Klucel (hydroxypropylcellulose) (HPC)): 1 of 6

SMILES: CCCCN(C)N=Nc1c[nH]c(=O)[nH]c1=O
- survivor count (dose: 150.0 mg/kg/injection, schedule: Q01DX001 (ip), vehicle: other): 0 of 6
- survivor count (dose: 300.0 mg/kg/injection, schedule: Q01DX001 (ip), vehicle: other): 0 of 6

SMILES: O=C(COc1ccc(Cl)cc1Cl)Nc1cccnc1
- survivor count (dose: 400.0 mg/kg/injection, schedule: Q04DX003 (ip), vehicle: saline with Tween-80): 1 of 6

SMILES: CC(=O)OC1c2sccc2Cc2ccsc21
- survivor count (dose: 400.0 mg/kg/injection, schedule: Q01DX001 (ip), vehicle: saline with Tween-80): 3 of 3

SMILES: CCCCC(=O)N(C(C)C)C(C)C
- survivor count (dose: 200.0 mg/kg/injection, schedule: Q01DX009 (ip), vehicle: carboxymethylcellulose (CMC)): 0 of 3 and 2 of 6
- survivor count (dose: 400.0 mg/kg/injection, schedule: Q04DX002 (ip), vehicle: carboxymethylcellulose (CMC)): 0 of 6 and 1 of 3

SMILES: COC(=O)c1ccc(OC(=O)Nc2cccc(Cl)c2C)cc1
- survivor count (dose: 400.0 mg/kg/injection, schedule: Q01DX009 (ip), vehicle: saline with Tween-80): 0 of 3 and 1 of 6

SMILES: CCc1csc(=S)[nH]1
- survivor count [3]: 1 of 6

SMILES: NC(N)=N/N=C/c1ccc(Cl)cc1Cl
- survivor count (dose: 99.0 mg/kg/injection, schedule: Q01DX010 (oral), vehicle: saline): 4 of 7
- survivor count (dose: 125.0 mg/kg/injection, schedule: Q01DX Z (ip), vehicle: saline): 4 of 6
- survivor count (dose: 148.0 mg/kg/injection, schedule: Q01DX010 (oral), vehicle: saline): 4 of 6
- survivor count (dose: 222.0 mg/kg/injection, schedule: Q01DX010 (oral), vehicle: saline): 3 of 6
- survivor count (dose: 222.0 mg/kg/injection, schedule: Q01DX Z (oral), vehicle: saline): 0 of 6
- survivor count (dose: 250.0 mg/kg/injection, schedule: Q01DX Z (ip), vehicle: saline): 0 of 6
- survivor count (dose: 333.0 mg/kg/injection, schedule: Q01DX Z (oral), vehicle: saline): 0 of 6
- survivor count (dose: 400.0 mg/kg/injection, schedule: Q01DX001 (ip), vehicle: saline): 0 of 4
- survivor count (dose: 500.0 mg/kg/injection, schedule: Q01DX Z (ip), vehicle: saline): 0 of 6
- survivor count (dose: 500.0 mg/kg/injection, schedule: Q01DX Z (oral), vehicle: saline): 0 of 6

SMILES: O=S1CCCO1 (centres undefined)
- survivor count (dose: 150.0 mg/kg/injection, schedule: Q01DX001 (ip), vehicle: saline): 1 of 6
- survivor count (dose: 300.0 mg/kg/injection, schedule: Q01DX001 (ip), vehicle: saline): 0 of 6

SMILES: Nc1ccc(CCCCc2ccc(Cl)cc2Cl)cc1
- survivor count [1]: 1 of 6

SMILES: N#CC(Cl)(Cl)CCl
- survivor count (dose: 200.0 mg/kg/injection, schedule: Q04DX003 (ip), vehicle: saline): 0 of 6
- survivor count (dose: 400.0 mg/kg/injection, schedule: Q04DX003 (ip), vehicle: saline): 0 of 6

SMILES: O=C1OC(=O)C2CCC12 (centres undefined)
- survivor count (dose: 400.0 mg/kg/injection, schedule: Q01DX009 (ip), vehicle: saline): 3 of 6

SMILES: O=CC(O)C(O)C(O)C(O)CO (centres undefined) (tested in a mixture with another compound)
- survivor count (dose: 50.0 mg/kg/injection, schedule: Q04DX002 (ip), vehicle: saline): 3 of 3
